## Screening data, single-dose tests

Values are the deposited “Percent Effect”, in %.
How 0% and 100% were set is not recorded. Most values in the screen are low, and negative values occur.
The compounds are a random part of those screened.
Two or more numbers in one place are separate tests of the same structure; such repeats can differ widely.

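Whole-cell growth test on Mycobacterium tuberculosis, read after 4 days in a medium based on cholesterol and the lipid DPPC; the read-out is not stated. Tested at 50 µM. Direction is inferred from retests: higher values go with more growth inhibition. About 69,000 compounds were tested under these conditions; 0.54% (about 370) showed 50% or more at least once.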

- CCC(CNC(=O)c1cccc(S(=O)(=O)NC)c1)N1CCCC1 (configuration not stated) : -7.2%
- COC(=O)c1cccc(S(=O)(=O)NC(=O)COC2CCCCC2)c1 : -15.87%
- CS(=O)(=O)N1Cc2ccnn2CC(C(=O)NCc2cccnc2)C1.O=C(O)C(F)(F)F.O=C(O)C(F)(F)F (configuration not stated) : -39.32%
- Cc1csc(N2CCN(CC(=O)Nc3nncs3)CC2C)n1 (configuration not stated) : 4.018%
- CCCS(=O)(=O)N1Cc2nccn2CC(CN2CCCC2)C1.O=C(O)C(F)(F)F (configuration not stated) : -12.33% and -0.9518%
- O=C1NCC[C@]12CN(Cc1ccoc1)C[C@H]2c1ccccc1 : -27.66%
- CC(C)Oc1ccc(CNC(=O)NCc2ccncc2)cc1F : 18.28%
- COC(=O)c1ccc(C2CC(=O)Nc3c2cnn3C)cc1 (configuration not stated) : -10.35%
- Cc1ccc2nc(CN3CCC(O)(CN4CCCC4)CC3)cc(O)c2c1 : 18.91%
- CCc1nc(Cn2c(=O)n(CC)c3ccccc32)no1 : -7.679%
- CN(CCN1CCN(c2ccccc2)CC1)C(=O)Nc1ccccn1 : 1.402%
- CCn1cc(CNc2ccc3nccnc3c2)cn1 : -4.807%
- CC[C@@H](C)[C@@H](N)C(=O)Nc1cccc(-c2cnc(N(C)CCO)nc2)c1 : -14.59%
- O=C1CC(c2ccc(F)cc2)Cc2[nH]c(=O)c(C(=O)O)cc21 (configuration not stated) : 20.58% and -3.314%
- CCS(=O)(=O)N1CCN(Cc2ccncc2)c2nc(C)ccc2C1.O=C(O)C(F)(F)F.O=C(O)C(F)(F)F : 0.6991%
- CN(C)C(=O)c1cncnc1-c1ccc(CNC(=O)C2CC2)cc1 : -3.114% and -3.066%
- [H][C@@]12CCN(C(=O)c3cccc(C)n3)C[C@@]1([H])O[C@H](C)C2 : -14.86%
- O=C(C1CCC1)N1CCC2(CCN(Cc3cccc(F)c3)CC2)CC1.O=C(O)C(F)(F)F : -8.465%
- Cc1cc(CC(=O)N2CCCC2c2nc(C(C)C)no2)on1 (configuration not stated) : -7.143%
- Cc1ccc(C)c(OCCN(C)C(=O)C2CCCN2C(N)=O)c1C (configuration not stated) : -14.87%
- O=C(O)C(F)(F)F.[H][C@@]12COC[C@]1(COCC(=O)N(C)C)CN(CC1CCC1)C2 : 6.229%
- COc1cccn(C(C)C(=O)NC2CCCC2)c1=O (configuration not stated) : -9.249%
- CCS(=O)(=O)N1CCc2c(CN(C)Cc3ccco3)cncc2C1.Cl.Cl : 9.904%
- CC1(c2ccc(Br)cc2)CC(=O)N(CC(N)=O)C1=O (configuration not stated) : -9.624%
- O=C(O)C(F)(F)F.[H][C@@]12CN(Cc3nccs3)C[C@]1([H])CN(C(N)=O)C2 : -30.81%
- O=C(O)C(F)(F)F.O=C(O)C(F)(F)F.O=C1NCC[C@]12CN(Cc1cccnc1)C[C@H]2c1ccccc1 : -0.709%
- CNC(=O)N1CCC2(CC1)c1ncc(C)n1CCN2C.O=C(O)C(F)(F)F.O=C(O)C(F)(F)F : 2.287%
- CCc1ccc(-c2cn(CCSc3ncn[nH]3)nn2)nc1 : -7.669%
- Cc1noc(C)c1CCC(=O)NCC1(O)CCCN(c2ccccn2)C1 (configuration not stated) : -6.253%
- CCC(C)c1csc(NC(=O)c2sc(-c3nnc[nH]3)nc2C)n1 (configuration not stated) : 11.4%
- Cc1cc(C)nc(N2CCCC2c2[nH]ncc2C(=O)N(C)C)n1 (configuration not stated) : 2.566%
- CC(C)C(=O)N1CCOC2(COCCN(c3ncccn3)C2)C1 (configuration not stated) : -5.087% and -38.82%
- [H][C@@]12CCN(Cc3ccsc3)[C@]1([H])CC[C@H](C(=O)NC1CC1)O2 : 2.388%
- CC(C)Oc1ccc(CNC(=O)CN(C)S(C)(=O)=O)cc1F : -8.824%
- O=C(NC1CCNCC1)C1(N2CCCCC2)Cc2ccccc2C1 : 4.544% and -31.48%
- CC1(C)Cc2cc(-c3cncn3CCNC3CCS(=O)(=O)C3)ccc2O1.Cl (configuration not stated) : 3.982%
- CS(=O)(=O)N1CCOCC2(CN(Cc3ccsc3)CCO2)C1.O=C(O)C(F)(F)F (configuration not stated) : 5.905%
- COc1cc(C)cc(C(C(=O)O)N2CCN(C3CCCC3)CC2)c1OC (configuration not stated) : -19.25%

Repeated from the top, 3 entries:

compound	percent effect
CCC(CNC(=O)c1cccc(S(=O)(=O)NC)c1)N1CCCC1 (configuration not stated)	-7.2
COC(=O)c1cccc(S(=O)(=O)NC(=O)COC2CCCCC2)c1	-15.87
CS(=O)(=O)N1Cc2ccnn2CC(C(=O)NCc2cccnc2)C1.O=C(O)C(F)(F)F.O=C(O)C(F)(F)F (configuration not stated)	-39.32

Source: ChEMBL document CHEMBL3988442, “University of Dundee, Small-Polar-MMV Screening Library” (2021).